## Primary screen of a compound library

Sequences of proteins named here, by UniProt entry; tags and fusion partners are left off. Residues count along the entry.
UniProt Q8IDJ8, 1-583: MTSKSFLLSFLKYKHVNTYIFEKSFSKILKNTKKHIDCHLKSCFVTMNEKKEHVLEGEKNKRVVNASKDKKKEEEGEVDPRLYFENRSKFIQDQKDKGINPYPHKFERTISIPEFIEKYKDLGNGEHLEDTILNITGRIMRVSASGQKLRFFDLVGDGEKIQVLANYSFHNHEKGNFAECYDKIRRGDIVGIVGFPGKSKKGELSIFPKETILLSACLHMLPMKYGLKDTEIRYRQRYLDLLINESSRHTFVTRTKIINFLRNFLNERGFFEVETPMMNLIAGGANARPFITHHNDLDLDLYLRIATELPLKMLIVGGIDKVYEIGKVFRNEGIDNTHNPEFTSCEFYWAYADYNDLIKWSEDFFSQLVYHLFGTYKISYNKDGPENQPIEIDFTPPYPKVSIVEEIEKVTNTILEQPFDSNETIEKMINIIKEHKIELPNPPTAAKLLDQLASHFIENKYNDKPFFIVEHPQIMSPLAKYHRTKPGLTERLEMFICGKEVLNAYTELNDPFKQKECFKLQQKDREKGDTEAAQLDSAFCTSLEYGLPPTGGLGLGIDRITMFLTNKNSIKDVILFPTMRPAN
UniProt P9WNZ1, whole entry: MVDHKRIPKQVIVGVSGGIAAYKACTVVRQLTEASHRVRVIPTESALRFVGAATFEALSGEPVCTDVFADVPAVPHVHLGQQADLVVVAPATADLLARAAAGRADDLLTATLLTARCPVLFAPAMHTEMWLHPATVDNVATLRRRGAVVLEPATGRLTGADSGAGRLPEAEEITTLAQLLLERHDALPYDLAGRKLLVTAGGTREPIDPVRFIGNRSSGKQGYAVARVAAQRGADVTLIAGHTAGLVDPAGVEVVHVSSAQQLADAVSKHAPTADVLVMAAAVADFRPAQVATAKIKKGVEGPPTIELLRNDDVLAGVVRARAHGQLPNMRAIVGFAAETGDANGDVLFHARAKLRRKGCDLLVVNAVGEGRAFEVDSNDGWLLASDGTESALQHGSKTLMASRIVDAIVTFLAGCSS

Source: ChEMBL document CHEMBL3988442, “University of Dundee, Small-Polar-MMV Screening Library” (2021).

Each number is a percent effect as filed.
The controls that fix the scale are not given in the record; negative values are as filed.
This is an unselected part of the compounds tested.
A dash means the value is not listed here; it may have been measured.

PfKRS1: 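Enzyme assay of the cytosolic lysyl-tRNA synthetase in 384-well plates, read by luminescence. Target: Lysine-tRNA ligase, Plasmodium falciparum 3D7 (UniProt Q8IDJ8). Compounds at 30 µM. Higher reads as stronger inhibition, judged from the few compounds that gave an IC50. About 69,000 compounds were tested under these conditions; 0.071% (about 49) showed 50% or more at least once.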
Toxoplasma: 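Assay of Toxoplasma gondii numbers, read through their beta-galactosidase reporter with a colour substrate. Compounds at 10 µM. Higher reads as fewer parasites (inferred from which compounds were picked for retests). About 67,000 compounds were tested under these conditions; 0.38% (about 260) showed 50% or more at least once.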
CoaBC: 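Enzyme assay of CoaBC with a phosphate dye (Biomol Green) read at 650 nm. Target: Coenzyme A biosynthesis protein CoaBC, Mycobacterium tuberculosis (UniProt P9WNZ1). Compounds at 30 µM. Higher reads as stronger inhibition, judged from the few compounds that gave an IC50. Most strong results did not repeat in a second test. About 67,000 compounds were tested under these conditions; 0.06% (about 40) showed 50% or more at least once.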

| Compound | PfKRS1 | Toxoplasma | CoaBC |
|---|---|---|---|
| `COc1ccc(CCN2C(=O)O[C@@H]3CN(C)C[C@@H]32)cc1` | -0.4368% | - | 4.562% |
| `COc1c(C2CCCN2C(=O)c2ccoc2)c(C)nn1C` (centres unmarked) | 2.215% | 15.1% | 4.156% |
| `COc1cccc2c1OCC(CNC(=O)Cn1ccnc1C)C2` (centres unmarked) | 5.215% | -0.02789% | 6.075% |
| `CN(C)Cc1ccc(C2CCCCN2C(=O)c2ncccc2O)cc1` (centres unmarked) | 11.25% | -0.8246% | -1.19% |
| `O=C(c1cccc(NCCO)c1)N1CCOCC1` | 0.3064% | 9.509% | -6.818% |
| `CN1CCN(C(=O)c2ccc(Cn3cc(Br)cn3)cc2)CC1` | 8.384% | -1.116% | -12.63% |
| `Cc1ccc2cnn(CCC(=O)NCc3c(C)nn(C)c3C)c2c1` | 4.793% | 11.68% | -2.273% |
| `Cn1cc(C(=O)N2CCCN(c3cccnn3)CC2)c2ccccc21` | -0.5132% | -8.281% | -0.1248% |
| `CC(C)C(C#N)N1CCN(C(=O)c2cc(-c3ccccn3)no2)CC1` (centres unmarked) | 7.018% | -1.665% | -0.3226% |
| `Cc1noc(C)c1CN1CC[C@H]2C[C@@H](c3ccncn3)O[C@@H]2C1` | 1.362% | - | 7.198% |
| `Cc1cccc(CNC[C@H]2Cn3ccnc3CO2)n1` | 3.733% | -0.2837% | 0.2208% |
| `CCCn1cnnc1CNC1CSCCSC1` | 4.144% | 6.901% | -10.04% |
| `CC(=O)Nc1ncc(S(=O)(=O)Nc2cccc(C)c2)s1` | 3.86% | 60.94% | -4.85% |
| `CN(Cc1ccccc1)C1(C(=O)NC(C)(C)CO)Cc2ccccc2C1` | 2.711% | -3.718% | 0.2179% |
| `Cc1ccc(C2CCCN(S(=O)(=O)N3CCOCC3)C2)nc1` (centres unmarked) | -0.1139% | 4.198% | -4.067% |
| `Cn1ccnc1-c1ccc(NC[C@H]2CCc3ccccc3O2)nn1` | 0.3801% | 2.523% | 6.971% |
| `O=C(c1cc(=O)[nH][nH]1)N1CCCC2(CCC(=O)N(C3CCCC3)C2)C1` (centres unmarked) | 4.78% | 43.3% | 6.263% |
| `CCN(CC)c1ccc(NC(=O)N2CCc3sccc3C2)cn1` | 5.293% | 0.05774% | 10.69% |
| `Cc1ncc2c(n1)CN(CCCc1nc3ccccc3o1)CC2` | 19.56% | 7.633% | 1.956% |
| `Cc1noc2ncnc(N(C)Cc3ccco3)c12` | 0.4745% | 1.623% | 1.013% |
| `CC(=O)N1CCS(=O)(=O)[C@@H]2CCN(S(=O)(=O)CC(C)C)CC[C@@H]21` | 4.544% | - | 4.017% |
| `c1csc(SCC2CN=C(N3CCOCC3)S2)c1` (centres unmarked) | 0.8943% | 1.787% | -1.474% |
| `Cc1nc(N)c2ccc(C3CCCCN3)nc2n1` (centres unmarked) | 4.656% | - | -0.4932% |
| `CC(C)NC(=O)Cn1ccc2c(Cl)cccc21` | 0.8486% | 19.31% | 3.03% |
| `O=C(Nc1ccc(N2CCOCC2)nc1)N1CCc2sccc2C1` | 5.293% | 0.6351% | 10.28% |
| `CN1CC(C(=O)NCc2cccnc2OCC(F)(F)F)CC1=O` (centres unmarked) | 6.782% | 1.063% | 1.582% |
| `CC(=O)N1CCC(Cc2cnc(-c3c(C)nn(C)c3C)cn2)CC1` | 1.465% | 4.264% | 5.828% |
| `Cn1nnc2c1CCN(CC1CC1)C2COCC1CC1` (centres unmarked) | 2.292% | - | 2.596% |
| `CC(Nc1cccc2c1OCCO2)C(=O)Nc1ccc(Cl)cc1` (centres unmarked) | 1.988% | 6.519% | -2.103% |
| `COC(=O)c1sc2cccc(F)c2c1CNC(=O)C1CCCO1` (centres unmarked) | -0.216% | 2.955% | 0.7782% |
| `O=C(O)C(F)(F)F.[H][C@@]12C[C@@H](C(=O)NC(C)C)C[C@@]1([H])N(Cc1cnn(C)c1)CCO2` | - | 1.923% | - |
| `CNC(=O)c1cc2c(nc1NCC1CC1)CCN(CC1CC1)CC2.O=C(O)C(F)(F)F.O=C(O)C(F)(F)F` | - | 4.698% | - |
| `CC1CCc2nc(O)c(C(=O)NCCc3cccs3)cc2C1` (centres unmarked) | 2.875% | 0.7015% | 9.636% |
| `c1ccc(-c2nc(CN3CCCC3Cn3cncn3)cs2)cc1` (centres unmarked) | 5.274% | - | 2.314% |
| `[H][C@]12CC[C@@]3(N=C(C)N(CC(C)C)C3=O)[C@@]1([H])CN(C(=O)NCC(C)C)C2` | - | 4.926% | - |
| `Cc1cc(CNC(=O)C2CCC(=O)N(Cc3ccccc3F)C2)on1` (centres unmarked) | 3.083% | -8.1% | 4.845% |
| `Cc1noc(CNc2ccccc2C(=O)N2CCCC(O)C2)n1` (centres unmarked) | 0.707% | -1.754% | 0.2445% |
| `CN(C(=O)COc1ccc(F)cc1)[C@@H]1CC[C@@H](n2ccnc2)[C@@H]1O` | 2.714% | -7.035% | -0.2421% |